These are yes or no findings as the source states them, for the method shown. Binding seen in cells or lysates may run through a third protein. Some binding calls cover weakened binding; strength is not graded here.

Amino acid sequences for entries named in this document (tags omitted).
UniProt Q8CBW3: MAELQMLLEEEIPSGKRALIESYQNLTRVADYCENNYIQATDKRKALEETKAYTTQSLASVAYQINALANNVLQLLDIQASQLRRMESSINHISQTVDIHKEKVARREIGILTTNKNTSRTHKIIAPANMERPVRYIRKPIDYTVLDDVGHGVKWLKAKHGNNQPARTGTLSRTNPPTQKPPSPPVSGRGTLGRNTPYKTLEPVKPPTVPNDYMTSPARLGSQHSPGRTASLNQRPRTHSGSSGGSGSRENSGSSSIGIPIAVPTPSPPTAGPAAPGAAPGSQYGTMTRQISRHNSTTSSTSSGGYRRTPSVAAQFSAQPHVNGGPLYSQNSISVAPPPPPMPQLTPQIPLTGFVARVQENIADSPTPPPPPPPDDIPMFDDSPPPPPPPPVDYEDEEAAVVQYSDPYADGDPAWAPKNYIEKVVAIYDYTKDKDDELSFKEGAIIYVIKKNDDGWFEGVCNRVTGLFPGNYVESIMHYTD
UniProt Q9WUU8: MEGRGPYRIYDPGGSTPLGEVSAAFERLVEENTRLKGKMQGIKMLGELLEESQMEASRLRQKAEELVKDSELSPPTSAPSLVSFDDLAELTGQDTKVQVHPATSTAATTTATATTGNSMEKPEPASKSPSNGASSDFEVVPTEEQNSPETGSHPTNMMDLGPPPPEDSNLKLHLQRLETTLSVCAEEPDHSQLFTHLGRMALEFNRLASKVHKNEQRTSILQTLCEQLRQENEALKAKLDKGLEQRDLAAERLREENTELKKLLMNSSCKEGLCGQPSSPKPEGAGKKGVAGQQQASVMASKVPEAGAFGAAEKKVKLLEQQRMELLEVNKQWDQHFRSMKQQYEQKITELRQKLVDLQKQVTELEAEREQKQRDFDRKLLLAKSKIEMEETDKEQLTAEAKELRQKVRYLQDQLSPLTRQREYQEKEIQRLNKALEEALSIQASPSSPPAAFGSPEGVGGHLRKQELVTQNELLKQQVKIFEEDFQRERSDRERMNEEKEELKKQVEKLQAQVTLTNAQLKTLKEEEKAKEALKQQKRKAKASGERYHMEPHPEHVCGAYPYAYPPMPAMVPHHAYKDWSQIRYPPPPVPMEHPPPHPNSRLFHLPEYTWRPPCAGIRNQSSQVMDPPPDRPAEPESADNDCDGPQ

For this assay, the target named is Abelson interactor 1 (ABI1) (mouse (endogenous in NIH/3T3)) (UniProt Q8CBW3). Nature of the assay: co-IP; endogenous proteins in lysate of unstimulated WT NIH/3T3; lysis in 25 mM Tris-HCl pH 7.4, 150 mM NaCl, 5% glycerol, 1% NP-40; precleared with mouse IgG; 5 ug anti-ABI1 (clone 1B9, MBL) or mouse IgG1 isotype control, Protein G Dynabeads, 4 C; washes with 0.1% NP-40; western blot. For orientation: A western blot detects proteins with antibodies after separation by electrophoresis.

Take “TNFAIP3 interacting protein 1 (TNIP1) (from UniProt Q9WUU8 1-647)”: the binding result is on record as “no binding”.

B1: ELKS/RAB6-interacting/CAST family member 1 (ERC1) (protein, UniProt Q99MI1 1-1120)
chain: MYGSARSVGKVEPSSQSPGRSPRLPRSPRLGHRRTNSTGGSSGNSVGGGSGKTLSMENIQSLNAAYATSGPMYLSDHENVGAETPKSTMTLGRSGGRLPYGVRMTAMGSSPNIASSGVASDTIAFGEHHLPPVSMASTVPHSLRQARDNTIMDLQTQLKEVLRENDLLRKDVEVKESKLSSSMNSIKTFWSPELKKERALRKDEASKITIWKEQYRVVQEENQHMQMTIQALQDELRIQRDLNQLFQQDSSSRTGEPCVAELTEENFQRLHAEHERQAKELFLLRKTLEEMELRIETQKQTLNARDESIKKLLEMLQSKGLSAKATEEDHERTRRLAEAEMHVHHLESLLEQKEKENNMLREEMHRRFENAPDSAKTKALQTVIEMKDSKISSMERGLRDLEEEIQMLKSNGALSSEEREEEMKQMEVYRSHSKFMKNKVEQLKEELSSKDAQGEELKKRAAGLQSEIGQVKQELSRKDTELLALQTKLETLTNQFSDSKQHIEVLKESLTAKEQRAAILQTEVDALRLRLEEKETMLNKKTKQIQDMAEEKGTQAGEIHDLKDMLDVKERKVNVLQKKIENLQEQLRDKEKQMSSLKERVKSLQADTTNTDTALTTLEEALADKERTIERLKEQRDRDEREKQEEIDTYKKDLKDLREKVSLLQGDLSEKEASLLDIKEHASSLASSGLKKDSRLKTLEIALEQKKEECLKMESQLKKAHEATLEARASPEMSDRIQQLEREISRYKDESSKAQTEVDRLLEILKEVENEKNDKDKKIAELESLTSRQVKDQNKKVANLKHKEQVEKKKSAQMLEEARRREDSLSDSSQQLQDSLRKKDDRIEELEEALRESVQITAEREMVLAQEESARTNAEKQVEELLMAMEKVKQELESMKAKLSSTQQSLAEKETHLTNLRAERRKHLEEVLEMKQEALLAAISEKDANIALLELSSSKKKTQEEVAALKREKDRLVQQLKQQTQNRMKLMADNYEDDHFRSSRSNQTNHKPSPDQIIQPLLELDQNRSKLKLYIGHLTALCHDRDPLILRGLTPPASYNADGEQAAWENELQQMTQEQLQNELEKVEGDNAELQEFANTILQQIADHCPDILEQVVNALEESS
With B1, the binding entry is reported as “binds”.

The record behind these values is PMC10620119.
